Experimental data as given in patent US20150147273A1, “RADIOLABELED ANALOG(S) OF COMPOUND 0118 AND USE THEREOF IN CONNECTION WITH PET AND/OR SPECT IMAGING TO DETERMINE WHETHER A PHARMACEUTICAL CONTAINING COMPOUND 0118 IS A CANDIDATE CANCER TREATMENT FOR A PATIENT” (KONINKLIJKE PHILIPS N.V., priority 2012, published 2015).
Some of these results come from one statement about several compounds together. At least one structure is not confirmed: it was looked up by name or label, or the drawing left a doubt.

Tested on: MA148 human ovarian carcinoma cells
Test: [3H]thymidine incorporation cell proliferation assay (FIG. 15)
Format: cell-based
Conditions: concentration of 0.5 μM, [3H]thymidine incorporation readout
Source text: Evaluation of the anti-angiogenic activity of lower-rim substituted 0118 analogues (compound 4, compound 5) and equatorially substituted 0118 analogues (compound 13, compound 14, compound 18a, compound 18b, compound 18c).

| Compound | inhibition of cell proliferation |
| --- | --- |
| C#CCC1c2cccc(c2OCC(=O)NCCN(C)C)Cc2cccc(c2OCC(=O)NCCN(C)C)Cc2cccc(c2OCC(=O)NCCN(C)C)Cc2cccc1c2OCC(=O)NCCN(C)C [compound 13, 25,26,27,28-Tetrakis-N—(N,N-dimethyl-2-aminoethyl)carbamoylmethoxy-2-(prop-2′-yn-1′-yl)calix[4]arene] | more than 70% |
| CN(C)CCNC(=O)COc1c2cccc1Cc1cccc(c1OCC(=O)NCCN(C)C)C(Cc1cn(CCF)nn1)c1cccc(c1OCC(=O)NCCN(C)C)Cc1cccc(c1OCC(=O)NCCN(C)C)C2 [compound 14, 25,26,27,28-Tetrakis-N—(N,N-dimethyl-2-aminoethyl)carbamoylmethoxy-2-{[1-(2-fluorethyl)-1H-[1,2,3]triazo-4-yl]methyl}calix[4]arene] | more than 70% |
| CCCC1c2cccc(c2OCC(=O)NCCN(C)C)Cc2cccc(c2OCC(=O)NCCN(C)C)Cc2cccc(c2OCC(=O)NCCN(C)C)Cc2cccc1c2OCC(=O)NCCN(C)C [compound 18b, 25,26,27,28-Tetrakis-N—(N,N-dimethyl-2-aminoethyl)carbamoylmethoxy-2-propylcalix[4]arene] | more than 70% |
